The source of these data is paper PMC7819943, “Rice protein-binding microarrays: a tool to detect cis-acting elements near promoter regions in rice”.

Protein sequences, listed by entry. Tags and fused reporters are not part of them.
UniProt Q0JBA9, entry or part of it: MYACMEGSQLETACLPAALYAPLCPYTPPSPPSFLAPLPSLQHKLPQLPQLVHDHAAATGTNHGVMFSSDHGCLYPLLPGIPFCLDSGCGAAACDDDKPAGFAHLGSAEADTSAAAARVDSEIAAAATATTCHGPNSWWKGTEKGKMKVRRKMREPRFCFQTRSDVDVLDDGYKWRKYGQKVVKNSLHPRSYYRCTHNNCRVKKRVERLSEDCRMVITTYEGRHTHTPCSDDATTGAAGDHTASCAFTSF

The other results are listed elsewhere or left out.

The experiment deals with OsWRKY34 (Oryza sativa, UniProt Q0JBA9 1-250). As to the kind of experiment: protein-binding microarray (RPBM); PBS, 2% BSA, 51.3 ng/ul salmon testes DNA, 50 uM zinc acetate, 200 nM TF, 25 C, 1 h; high values mean tight binding. The conditions noted are these: protein: recombinant; tags: N-terminal polyhistidine and DsRed monomer fusion (pET32a); label: CyDye5-dUTP incorporated in the synthesized complementary strand; 3' TTTTT single-stranded linker to array surface; dsDNA, one strand shown. In a few lines: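 Using Ni–NTA, transcription factors fused N-terminally to polyhistidine and DsRed were purified after expression in E. coli BL21-CodonPlus. These were incubated at 200 nM with a blocked, double-stranded custom Agilent array for 1 h at 25 °C in a buffer containing 50 µM zinc acetate, and the array was washed. The binding signal is per-feature fluorescence intensity (arbitrary units) on an Axon 4000B scanner.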
For “TAAGTAAAACCTACTTTTCCTCCTTCCGCTTCTCAGTCCACGGAGTCACCTAGTGCAG”, the binding signal is 8990 fluorescence intensity (a.u.). Consider “CCGGTCGCCTCTGGTCGTGGTGCCCGCGAAATTTGACCGTCGGAGTCACCTAGTGCAG”, for which the binding signal is 8370 fluorescence intensity (a.u.). Consider “GGCCCACCTGTCATACCTATCCTCAAACCAATCTGCCAATCGGAGTCACCTAGTGCAG”, for which the binding signal is 8360 fluorescence intensity (a.u.). Consider “AAGCCCATAAAGATTCCGTCACTCGGAATCTTCAATCTTGCGGAGTCACCTAGTGCAG”, for which the binding signal is 8320 fluorescence intensity (a.u.). Then “TCAATCAAACGGTTATTTATGTGTTTTTTCTACTTTTTATCGGAGTCACCTAGTGCAG”, with 11000 fluorescence intensity (a.u.); and “TCCCAACAAACTCATCACATGCTCTCCTTGTTTGTTGCAACGGAGTCACCTAGTGCAG”, with 9570 fluorescence intensity (a.u.); and “ACCTCTCGCTCCACTCAGCCGCCGCCCCTCGCCGTCGCCGCGGAGTCACCTAGTGCAG”, with 8080 fluorescence intensity (a.u.). Then “GCCACTCACTCGCTGCACACTAGTCCTTCAGTTTCAGTCCCGGAGTCACCTAGTGCAG”, with 10800 fluorescence intensity (a.u.); and “CGAGATCAAAATTAATCTTTCCGTACCCGTTGCATACTCCCGGAGTCACCTAGTGCAG”, with 9110 fluorescence intensity (a.u.); and “ACCCGTTTTGGTTGACTTGTGTTGACCTAGCCGAGTGACTCGGAGTCACCTAGTGCAG”, with 11000 fluorescence intensity (a.u.). Then “GAAATCATCATGCATGCTTACTCTGTCCATCACCACTTGACGGAGTCACCTAGTGCAG”, with 9130 fluorescence intensity (a.u.); and “GCGGAATGGGCGGCGGTGGAGGTGGCGGGTTTGGAGGCGGCGGAGTCACCTAGTGCAG”, with 16700 fluorescence intensity (a.u.). “CCATTGTTCCCTTTATAACCTGTGTTTTCCACCATATAATCGGAGTCACCTAGTGCAG”: the binding signal is 10300 fluorescence intensity (a.u.).

For the sequence “GGCTAGATTTTCGCGATTTTTTTTAGTTTCGATCCCGGTTCGGAGTCACCTAGTGCAG”, the binding signal was 10900 fluorescence intensity (a.u.). Consider “GGCCTCATTCTGGGATCGTTTTATGGTGGGGTTATCGTTACGGAGTCACCTAGTGCAG”, for which the binding signal was 20600 fluorescence intensity (a.u.). Then “AGGTTTTGGTTTGGTCTTTTTTGTGAACAGCCATGTCGTCCGGAGTCACCTAGTGCAG”, with 9310 fluorescence intensity (a.u.). “TGCTGCTGGTTACTTGTATTAATACATTATAGAAAATGAGCGGAGTCACCTAGTGCAG”: the binding signal was 8070 fluorescence intensity (a.u.).

Turning to “CTCCAAGCTTTTTCCCCTTTGCAGTTGTGCCCTTATCATCCGGAGTCACCTAGTGCAG”, the binding signal is 13800 fluorescence intensity (a.u.). With “TTGCTATTGCCGTCTTGTCTACTGTTATAGCATTGATTATCGGAGTCACCTAGTGCAG”, the binding signal was 9520 fluorescence intensity (a.u.). Then “ACAATTGAAGCAAACTAACAACATCCGATCAGTTTTCGTCCGGAGTCACCTAGTGCAG”, with 8590 fluorescence intensity (a.u.); and “CCGCTCCGCTCCGTCGGCTGCTGTACCAGCCATCACTGCTCGGAGTCACCTAGTGCAG”, with 9000 fluorescence intensity (a.u.).

For “ACCCTTACATTACTTCCTTAAACCATTAACATCTGAATTCCGGAGTCACCTAGTGCAG”, the binding signal is 11100 fluorescence intensity (a.u.). For the sequence “ACCGCTTTTGAACCGTCAGCGTTGCCGCATTCGCACCGTCCGGAGTCACCTAGTGCAG”, the binding signal was 8190 fluorescence intensity (a.u.).

As for “AGGTTTTAGTAGTCTCTTTTTTTTGGGTTGCGTGCATTTTCGGAGTCACCTAGTGCAG”, the binding signal is 10200 fluorescence intensity (a.u.). The value for “TAACTTTTTTTTACATGTATTTTTCTTAACTTGGACATAACGGAGTCACCTAGTGCAG” was 11200 fluorescence intensity (a.u.); that for “TCAATTCCTATATTTTTTCTATTCCTGTGTTTTTCCTATCCGGAGTCACCTAGTGCAG” was 8090 fluorescence intensity (a.u.); that for “ATTTTGCTCGTTAGCTTGTACATACGCAACTTAATTATCTCGGAGTCACCTAGTGCAG” was 8620 fluorescence intensity (a.u.). The value for “CATTTCGTTGATCCCACTCATATCGCAGCTGCTCTAGCAACGGAGTCACCTAGTGCAG” was 8330 fluorescence intensity (a.u.); that for “GCGGCAATCATCTAACCGTCCATCCCGTGATCGAGCGCATCGGAGTCACCTAGTGCAG” was 10100 fluorescence intensity (a.u.). In the case of “CCCCGGTTGGCCACTACTTTTGCGATTTTCCATAAAAATACGGAGTCACCTAGTGCAG”, the binding signal was 8560 fluorescence intensity (a.u.). The value for “ATTTCTTTCCATCCATAATTACTAGGCTGCATTGCCTCTTCGGAGTCACCTAGTGCAG” was 8720 fluorescence intensity (a.u.); that for “GTCGATTTGGGACGCGACATTTTCTTACTCCCTGAGATCTCGGAGTCACCTAGTGCAG” was 10400 fluorescence intensity (a.u.); that for “ACCCCACATGTCAGTACCAAAGGTTCACCCATTCTCCGTACGGAGTCACCTAGTGCAG” was 9020 fluorescence intensity (a.u.). As for “CTTGCGATCACCCTCTCACCACCGCTACAGATCACCATTGCGGAGTCACCTAGTGCAG”, the binding signal is 9510 fluorescence intensity (a.u.).

As for “ATCATGTCTTTCAGTCACCAATTTGTCACTAGTGGGCCCACGGAGTCACCTAGTGCAG”, the binding signal is 8130 fluorescence intensity (a.u.). For “CTCTCTCCACCCTCAGCCGCCACACTCCCATCCATTCTCCCGGAGTCACCTAGTGCAG”, the binding signal is 9060 fluorescence intensity (a.u.).

For the sequence “GCTGTCTCGCACTCGCCGCCGCCGCCGTCGCCGCGCCTCTCGGAGTCACCTAGTGCAG”, the binding signal is 8340 fluorescence intensity (a.u.).

Take “ACACCACCACTAGGTTCTTTTTCATTGTATGTAGGAAGCACGGAGTCACCTAGTGCAG”: the binding signal was 8550 fluorescence intensity (a.u.). Then “CTCGTGTCCTATTTTTACCGTTTATACAACTATTAACTTACGGAGTCACCTAGTGCAG”, with 11300 fluorescence intensity (a.u.); and “TTCAATTTCTTGATGTGTAAGTACTACTACTTGAATTATTCGGAGTCACCTAGTGCAG”, with 8240 fluorescence intensity (a.u.); and “GGTATTTATAGACTCGGTTTTTACATGTACATGAAACCCTCGGAGTCACCTAGTGCAG”, with 9170 fluorescence intensity (a.u.). Regarding “TCCAGGCAGTTCTACCTCGATTACTTTATGCTGCTGCACCCGGAGTCACCTAGTGCAG”, the binding signal is 9590 fluorescence intensity (a.u.).
